PubChem BioAssay AID1053208 | Peter MacCallum Cancer Centre | 2014

- Aim: 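Genes whose silencing cuts survival of bone tumour cells only with doxorubicin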 (primary screen)
- Cell system: mouse osteosarcoma cells, early-passage culture from an engineered mouse model of fibroblastic bone tumour
- Reagents: siRNA pool against mouse genes, 40 nM
- Time to read-out: about 120 h (48 h before drug, then 72 h with drug)
- Challenge: doxorubicin 100 nM for 72 h, roughly 30-40% inhibitory dose
- Measurement: 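Luminescent ATP signal taken as viability with or without 100 nM doxorubicin for 72 h; mean of two wells set against non-targeting siRNA and turned into robust z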
- Scale: viability z-score with doxorubicin: higher = more viable cells under doxorubicin; viability z-score without drug: higher = more viable cells with knock-down alone
- Rule for the call: 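a pool counts as active when its viability z-score with doxorubicin is -2 or below and its z-score without drug lies between -2 and 2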
The whole screen tested about 17,000 reagents; shown is a random part of them. Of all reagents, 788 (4.7%) are marked active. 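Calls rest on z-score classes alone; an extra cut-off of viability at most 70% of control was not applied to them.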 Reagents against one gene are numbered here. Further read-outs or replicates are left out here.

gene	reagent no.	combined z-score class	viability z-score with doxorubicin	viability z-score without drug	call
Oard1 (O-acyl-ADP-ribose deacylase 1)	1	no change with or without drug	-0.11	0	inactive
Cpsf2 (cleavage and polyadenylation specific factor 2)	1	no change with or without drug	0.11	-0.17	inactive
Defb8 (defensin beta 8)	1	no change with or without drug	1.24	0.67	inactive
2900005J15Rik (RIKEN cDNA 2900005J15 gene)	1	no change with or without drug	0.9	0	inactive
Galnt11 (polypeptide N-acetylgalactosaminyltransferase 11)	1	no change with or without drug	0.22	-0.34	inactive
Cxcr5 (C-X-C motif chemokine receptor 5)	1	no change with or without drug	0.22	-0.17	inactive
Dnajb2 (DnaJ heat shock protein family (Hsp40) member B2)	1	no change with or without drug	0.67	0	inactive
Cldn17 (claudin 17)	1	no change with or without drug	-1.46	-1.18	inactive
Slc11a2	1	no change with or without drug	-0.22	-0.51	inactive
Taar1 (trace amine-associated receptor 1)	1	no change with or without drug	-0.56	-1.01	inactive
Zfp503 (zinc finger protein 503)	1	no change with or without drug	-0.67	-0.84	inactive
Gm9801 (predicted gene 9801)	1	no change with or without drug	1.12	1.35	inactive
Dap (death-associated protein)	1	no change with or without drug	-1.69	0.34	inactive
Spc24	1	no change with or without drug	-0.67	-0.84	inactive
Lysmd2 (LysM, putative peptidoglycan-binding, domain containing 2)	1	no change with or without drug	0.45	-0.17	inactive
Lingo2 (leucine rich repeat and Ig domain containing 2)	1	no change with or without drug	-0.22	0.51	inactive
Eif5b (eukaryotic translation initiation factor 5B)	1	low cell count with and without drug	-2.02	-3.54	inactive
Rnf17 (ring finger protein 17)	1	no change with or without drug	0.79	-0.67	inactive
H2-K1 (histocompatibility 2, K1, K region)	1	no change with or without drug	1.12	0.51	inactive
H2-K1 (histocompatibility 2, K1, K region)	2	no change with or without drug	-0.67	-1.35	inactive
Tmprss6 (transmembrane serine protease 6)	1	no change with or without drug	1.69	0.51	inactive
Slc6a4	1	no change with or without drug	1.8	1.69	inactive
Taf4 (TATA-box binding protein associated factor 4)	1	no change with or without drug	-1.12	-1.35	inactive
Shroom3 (shroom family member 3)	1	no change with or without drug	-1.35	-1.52	inactive
Birc3 (baculoviral IAP repeat-containing 3)	1	no change with or without drug	-1.35	0.51	inactive
Loxl4 (lysyl oxidase-like 4)	1	no change with or without drug	0.79	0.84	inactive
Or8k18 (olfactory receptor family 8 subfamily K member 18)	1	low cell count with doxorubicin only	-2.02	-1.18	active
Dhdds (dehydrodolichyl diphosphate synthase)	1	no change with or without drug	0.67	0.51	inactive
Lkaaear1 (LKAAEAR motif containing 1 (IKAAEAR murine motif))	1	no change with or without drug	-0.9	1.18	inactive
Or8b50 (olfactory receptor family 8 subfamily B member 50)	1	no change with or without drug	1.35	0.67	inactive

Copied from the entries so far (10 entries):
gene	reagent no.	combined z-score class	viability z-score with doxorubicin	viability z-score without drug	call
Cxcr5 (C-X-C motif chemokine receptor 5)	1	no change with or without drug	0.22	-0.17	inactive
Dnajb2 (DnaJ heat shock protein family (Hsp40) member B2)	1	no change with or without drug	0.67	0	inactive
Cldn17 (claudin 17)	1	no change with or without drug	-1.46	-1.18	inactive
Slc11a2	1	no change with or without drug	-0.22	-0.51	inactive
Taar1 (trace amine-associated receptor 1)	1	no change with or without drug	-0.56	-1.01	inactive
Zfp503 (zinc finger protein 503)	1	no change with or without drug	-0.67	-0.84	inactive
Gm9801 (predicted gene 9801)	1	no change with or without drug	1.12	1.35	inactive
Dap (death-associated protein)	1	no change with or without drug	-1.69	0.34	inactive
Spc24	1	no change with or without drug	-0.67	-0.84	inactive
Lysmd2 (LysM, putative peptidoglycan-binding, domain containing 2)	1	no change with or without drug	0.45	-0.17	inactive

The results go on.
gene	reagent no.	combined z-score class	viability z-score with doxorubicin	viability z-score without drug	call
Sergef (secretion regulating guanine nucleotide exchange factor)	1	no change with or without drug	0	-0.84	inactive
Pde1b (phosphodiesterase 1B, Ca2+-calmodulin dependent)	1	no change with or without drug	0	-0.51	inactive
Pdia3 (protein disulfide isomerase associated 3)	1	no change with or without drug	-0.9	-0.17	inactive
Kif26b (kinesin family member 26B)	1	no change with or without drug	-1.46	0.51	inactive
Kif26b (kinesin family member 26B)	2	no change with or without drug	-1.35	-1.01	inactive
Tmem242 (transmembrane protein 242)	1	no change with or without drug	0.11	0.17	inactive
E2f1 (E2F transcription factor 1)	1	high cell count with doxorubicin only	2.25	1.01	inactive
Nudt5 (nudix hydrolase 5)	1	no change with or without drug	1.24	-1.85	inactive
Gnl2 (guanine nucleotide binding protein nucleolar 2)	1	no change with or without drug	-1.69	-1.85	inactive
Cyb5r3 (cytochrome b5 reductase 3)	1	no change with or without drug	1.57	-0.17	inactive
Atxn10 (ataxin 10)	1	no change with or without drug	1.35	-0.17	inactive
Mrpl45 (mitochondrial ribosomal protein L45)	1	low cell count with and without drug	-2.02	-2.53	inactive
Gpi1 (glucose-6-phosphate isomerase 1)	1	no change with or without drug	-0.22	-0.84	inactive
Ltv1 (LTV1 ribosome biogenesis factor)	1	no change with or without drug	-0.9	0.17	inactive
Iqcf4 (IQ motif containing F4)	1	no change with or without drug	0.67	1.52	inactive
Clip4 (CAP-GLY domain containing linker protein family, member 4)	1	no change with or without drug	-1.57	1.85	inactive
Slbp (stem-loop binding protein)	1	no change with or without drug	0.67	-1.18	inactive
Cyp4a10 (cytochrome P450, family 4, subfamily a, polypeptide 10)	1	no change with or without drug	0.22	0.17	inactive
Colec10 (collectin sub-family member 10)	1	no change with or without drug	0.9	-0.17	inactive
Tpbg (trophoblast glycoprotein)	1	no change with or without drug	-0.45	-0.84	inactive
Gstm6 (glutathione S-transferase, mu 6)	1	no change with or without drug	-1.69	-0.84	inactive
Zfp449 (zinc finger protein 449)	1	no change with or without drug	1.8	-0.17	inactive
Gap43 (growth associated protein 43)	1	no change with or without drug	-1.24	-1.85	inactive
Ift46 (intraflagellar transport 46)	1	no change with or without drug	0.45	-0.17	inactive
Snrpd1 (small nuclear ribonucleoprotein D1)	1	low cell count with doxorubicin only	-5.17	-1.52	active
Rtraf (RNA transcription, translation and transport factor)	1	no change with or without drug	0.11	0.84	inactive
Chrm5 (cholinergic receptor, muscarinic 5)	1	no change with or without drug	-1.46	-0.51	inactive
Ifnb1 (interferon beta 1, fibroblast)	1	no change with or without drug	0.67	0.17	inactive
Slc66a3	1	high cell count without drug only	-0.34	2.02	inactive
Eapp (E2F-associated phosphoprotein)	1	no change with or without drug	0.9	1.85	inactive
Ppl (periplakin)	1	low cell count with doxorubicin only	-2.02	-1.35	active
Tpi1 (triosephosphate isomerase 1)	1	no change with or without drug	0.45	0.51	inactive
Kat2a (K(lysine) acetyltransferase 2A)	1	no change with or without drug	-0.45	-1.18	inactive
